Experimental data: PubChem BioAssay AID1508600 (Functional Genomics Laboratory (NCATS/FGL), 2020)
About 3,700 (7%) of roughly 53,000 sequences were called active.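 How the source made its calls: active means gene knockdowns whose robust z-score for IL-1 alpha signal is at least 2 or at most -2, so actives lie on both sides; inactive means the rest.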 The list shows a part of the results.

Experiment: Components of the Cytosolic LPS Sensing Pathway: Gene Identification via Genome-wide siRNA Screen;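 further: robust z of the log signal after scaling to non-targeting control siRNA wells of the plate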
Conditions: RAW264.7 macrophages, IL-1a HTRF, actives lie on both sides, screened at 100 nM (by protocol), cells primed 5 h with Pam3CSK4 first
Method in brief: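 Three distinct siRNAs per gene were tested singly at 100 nM in RAW264.7 macrophages. Following Pam3CSK4 priming and 24 hour LipidA transfection, IL-1a secretion was read by HTRF.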
With CCAAAUUAGCAACAUGGAATT against Deptor the z-score was inactive: 0.17. In the case of CCAAUGUAAGACACGAUGUTT against Gpr151, the z-score was inactive: 1.36. With GCAAUAUUUUCCCUAGAUCTT against Vmn1r234 the z-score was inactive: -0.357. For “CGGCACUAAACUUCGUGAGTT against 1700084P21Rik”, the z-score was inactive: -0.969. With CGACACAUAUGCUAGCUUGTT against Slc7a5 the z-score was inactive: -0.855. With GGUUCUGAUAGCUCAAGAGTT against Polr2b the z-score was inactive: -1.96. For GGCUAAAAGUAGUGAAUGATT against Ccr2, the z-score was inactive: -1.73. With GCAUUUCGACGCGGCUUUUTT against Snapc1 the z-score was inactive: 0.617. In the case of GGGUAUUCUUGCUUUAGCUTT against Csnk1g3, the z-score was inactive: 0.302. With GGAUUCUGCCUGAUCAAUGTT against Rab5if the z-score was inactive: -0.951. For UACUCGUAUUCUUAAUUGCTT against Acsl1, the z-score was inactive: -0.272. In the case of CGAGAGUGUGCCAAUAUUGTT against Tyrp1, the z-score was inactive: -0.351. For GGAUGUGGAAUCAUGCUAUTT against Tnpo3, the z-score was active: 2.41. For GGUUGGUGUAUUCUGGCAGTT against Herpud2, the z-score was inactive: -0.175. With GGCAGCUUUCCUAUUGAAUTT against Tex19.1 the z-score was inactive: 0.233. In the case of GGAACCUCUCAGAUUUUCATT against Zfp599, the z-score was inactive: 0.828. In the case of GCACCAUGUUCAUCUUUACTT against Tas2r144, the z-score was inactive: 0.373. For GGUACACAUGAGACAAUAUTT against Whamm, the z-score was active: -2.18. In the case of GGGCUAAUAUACAGAAAUATT against Rrm2b, the z-score was inactive: -0.126. In the case of GCCAAUAAGGAAGCGGAUUTT against Cenpq, the z-score was inactive: 1.06. With GUUACCUCGUGGAAAGCAUTT against Vmn1r43 the z-score was inactive: -0.345. With GGAAGAUUGUAACUGAUUATT against Cpa4 the z-score was inactive: -1.16. For CCUGAAUUGGUACCUCACATT against Ugt3a1, the z-score was inactive: -0.427. For GGCUGAGGUGCUACAUACATT against Ctu1, the z-score was inactive: -1.08. In the case of CCAAUGCUUCUAGUUAACATT against Olfr155, the z-score was inactive: -0.299. With GGAAGUAGCUUAUUGUUCUTT against Polr2b the z-score was active: -2.69. For GCAAUAAGUUGACUGUGGATT against Zxda, the z-score was inactive: -0.00967. For GGUGAUGGAAGAAGAAGGCTT against Stk38, the z-score was inactive: -0.53. In the case of GGAGCAAGAUGUUUCUGAATT against Wrap53, the z-score was inactive: 0.869. With GCGACAACUUAAAGACCGGTT against Cand2 the z-score was inactive: 0.0878. For GGAUGACUCGGAGAACUACTT against Psca, the z-score was inactive: 1.38. For “GGAAAUCACAUUGUCCUGCTT against 3010003L21Rik”, the z-score was inactive: 1.13. For CGAGAAUACCAAACUCGUGTT against Usp17ld, the z-score was inactive: -0.255. In the case of GCGUGGUUCAGUCAGGUAUTT against Bod1, the z-score was inactive: -1.25. In the case of GGCUUUAGAGAAAGAAGUATT against Med4, the z-score was inactive: 1. For GGGCAGGAGAAGGAUUCAUTT against Rit1, the z-score was inactive: -0.687. In the case of GGACUCCACUUUUGAAAACTT against Cox16, the z-score was inactive: -1.06. For CGGUAAACAUCAGUAAUGATT against Drd5, the z-score was inactive: 0.0608. In the case of GCAUCCUCAGCCGUAUAUCTT against Ndufb9, the z-score was inactive: 0.577. With GGUGUCACCAUUUCAGUGGTT against Lbp the z-score was inactive: 0.703. In the case of CCUGGAUGCAUGGUUAUUATT against Cyp2ab1, the z-score was active: 2.69. With GGGUUACAAUAACUGGACATT against Ggcx the z-score was active: 2.32. In the case of CUGUAUGUUAUCUCUACACTT against Olfr1513, the z-score was inactive: 0.469. In the case of GGUUUUCUUUUCUUCUGCCTT against Aar2, the z-score was inactive: -1.11. For GGGCCAGACAAUCAAACUGTT against Kcne3, the z-score was inactive: 1.11. In the case of GGUUCUGUCUUUUACUUUCTT against Olfr1496, the z-score was inactive: 0.232. In the case of GGAUGACAUAUUUUUGGACTT against Mpv17l, the z-score was inactive: 0.667. With GGUAUAGCACCAUCCUGACTT against Olfr651 the z-score was inactive: -0.0407. For GCUUCUCCGCUUAUUGGUCTT against Slc46a2, the z-score was inactive: -0.245. In the case of GGCUUUGGCAUGAUUGGCCTT against Tmem214, the z-score was active: -2.72. In the case of GGCAACUGUGUGCUUGUGATT against Pla2g2d, the z-score was inactive: -1.3. With GCUGUUACUCAGCAGAGAGTT against Bach2 the z-score was inactive: -1.02. In the case of CCUAUUAAGCGAUCCAGAUTT against Kcnj16, the z-score was inactive: -1.47. With CCCAUGAAAUUUCUGUGCGTT against Adcy3 the z-score was inactive: -1.41. In the case of CGUGUAAACGAAGUUAUCATT against G2e3, the z-score was inactive: -0.356. With GUACUUGAGGCAGAAGGCATT against Cyp3a11 the z-score was inactive: 1.35. With GGGUAGCUCAGAAAGGUUATT against Tafa3 the z-score was inactive: -1.55. In the case of CCGGCUACUUCAUACCAGATT against Fxyd6, the z-score was inactive: -0.236. In the case of GCAGUGUGAAAUCAACUAUTT against Frg1, the z-score was inactive: -0.406. In the case of CCGCCAAGCUCAACUAUCUTT against Top1mt, the z-score was inactive: -0.787. For GGAUUGUCAGCCAAGAAACTT against Uba7, the z-score was inactive: -0.085. With CGAGGUCCUUGAUUAUAUCTT against Ciita the z-score was inactive: -0.364. With GGAAAAGCUUUGUAUUACUTT against Adgra2 the z-score was inactive: 1.35. With GGUUGUUAUUGGAAAAGCATT against Pdpk1 the z-score was inactive: -1.32. In the case of GGUGGAAAAUUGAUACAAATT against Stx17, the z-score was inactive: 0.689. For GGGAUACGACUAAACUAUUTT against Gucy1a1, the z-score was inactive: 0.475. In the case of GGCAUGGAAUAUGAUGUUATT against Nlrp9b, the z-score was inactive: -1.72. In the case of GCUGUUAACUAUCUGGAUATT against Prokr1, the z-score was inactive: 0.59. With GGAUGUUUUCCAGAAGAACTT against Map3k6 the z-score was inactive: 0.623. In the case of GCAAUGAAUUCGACCCAGATT against Ppp2r5e, the z-score was inactive: -0.175. With GGCUACAGCAAGAAGACUUTT against Ctsw the z-score was active: 3.08. With CGGUUAACUGGAAAGUGCGTT against Tmem132e the z-score was active: 2.99. For CCUCGAGAGACUUUCAUGGTT against F2, the z-score was inactive: -0.475. For GCUUCACCACUGGACAAAGTT against Adh1, the z-score was inactive: -0.167. With GCUUCCUCUUAUCAUAUAATT against Rgs13 the z-score was inactive: -0.119. With GGACGAGAAGCUCACUGUATT against Oaz2 the z-score was inactive: -0.425. With GCUAAACACGCUGAAUAUUTT against Phf10 the z-score was inactive: 0.107. With GCACUUUCAUGGAUAUAAGTT against Rab22a the z-score was inactive: -0.366. With GGCAAGUUUGUCCAGUGGATT against Phc3 the z-score was inactive: -0.726. With GGGUAUAAGGUCCCUUUUUTT against Gbp8 the z-score was inactive: 0.709. In the case of GGAGACUGUAGACUUAAAGTT against Rnf25, the z-score was inactive: -1.24. In the case of GGGAAAAUUGAAGCUUGUATT against Tfam, the z-score was inactive: 0.402. With GGGAAUCCGGAGAAAAUUATT against Aco1 the z-score was inactive: -1.17. In the case of CCCAGUUGCUGUUCUUGACTT against Defb40, the z-score was inactive: 0.553. In the case of CCGUUAAGGUUGAUCUAAUTT against Ccdc34, the z-score was inactive: 0.277. For GCCACACUUUAAUUUCGCATT against Ttc8, the z-score was inactive: -0.457. For CAUAUUCCUUGCAUUACAATT against Taok3, the z-score was inactive: 0.929. With GCAGAUGGAAUUCACCGAATT against Vps13a the z-score was inactive: 1.79. In the case of GGAAAUCCUGCCAUCAAACTT against Kti12, the z-score was inactive: 0.0153. In the case of GGAUGUCAAGGUGGCAUUATT against Olfr147, the z-score was inactive: -0.534. With GGUCAACCUUUAAAAAACATT against Kifc2 the z-score was inactive: -1.35. For GGAUUGUGCAUUUCAUUGUTT against Mtmr6, the z-score was inactive: 0.678. With GGACAAAAUAAUGCUUUCUTT against Cnnm1 the z-score was inactive: 0.0436. In the case of GGUAUCUGUCCAUCCAAAUTT against Tcam1, the z-score was inactive: 1.28. In the case of GGGAACAAGUUGAGCUACUTT against Ebp, the z-score was inactive: -0.0574. In the case of GGACGUGUUUGGGAUUGUUTT against Csad, the z-score was inactive: -0.765. In the case of CGAAUAUCAUCUCACACUCTT against Olfr875, the z-score was inactive: 1.42. With GGGAGGAAGAAGAAGGUCATT against Atp1b4 the z-score was inactive: -0.193. For GCGGCCAUUACCAAAAUUGTT against Olfr520, the z-score was inactive: 1. In the case of GGUAGUUGUCCUCAUGUGCTT against Scn2b, the z-score was inactive: 0.53. In the case of GGAUGUUUUAUUUCCGUACTT against Enoph1, the z-score was inactive: -1.12. For GCCUGGUAGUUAGUCAGAATT against Klf11, the z-score was active: 2.4. With GGUUCAUCAAGAAGUUAGATT against Pip5k1c the z-score was inactive: -0.407. In the case of GGACCGAUUAAGGAAGGAATT against Ppp1r1a, the z-score was active: 2.49. With CGCCGGAAGUUCUACCACUTT against Tmem205 the z-score was inactive: 0.223. For GGACAUUAAGAGUGGAAAGTT against Nucb1, the z-score was inactive: 0.777. For GGGUCAAAGCUCAACGAAATT against Il2rb, the z-score was inactive: 0.806.
